Results as given in the supplement of paper PMC12819154, “High-throughput peptide-centric local stability assay extends protein–ligand identification to membrane proteins, tissues and bacteria” (Nature Structural & Molecular Biology, 2025).
This is one part of the list. Most entries show no effect beyond the scatter of the controls.

Chains of the proteins cited; added tags and fusions are not shown. Lines headed by an entry give the natural chain unless they say otherwise; changes in a name come on top.
UniProt O00716: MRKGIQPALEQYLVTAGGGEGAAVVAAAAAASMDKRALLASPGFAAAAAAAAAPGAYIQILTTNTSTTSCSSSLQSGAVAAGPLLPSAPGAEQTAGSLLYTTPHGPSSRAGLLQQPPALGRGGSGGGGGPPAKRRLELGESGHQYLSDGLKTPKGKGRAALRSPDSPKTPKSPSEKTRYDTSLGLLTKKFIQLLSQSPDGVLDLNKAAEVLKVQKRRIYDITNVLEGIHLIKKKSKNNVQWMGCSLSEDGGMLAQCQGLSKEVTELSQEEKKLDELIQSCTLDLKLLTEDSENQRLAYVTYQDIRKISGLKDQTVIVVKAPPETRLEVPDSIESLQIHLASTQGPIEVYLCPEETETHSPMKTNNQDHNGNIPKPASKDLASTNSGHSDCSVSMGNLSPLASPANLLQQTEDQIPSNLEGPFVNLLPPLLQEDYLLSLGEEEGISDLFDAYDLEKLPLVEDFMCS
UniProt O14657: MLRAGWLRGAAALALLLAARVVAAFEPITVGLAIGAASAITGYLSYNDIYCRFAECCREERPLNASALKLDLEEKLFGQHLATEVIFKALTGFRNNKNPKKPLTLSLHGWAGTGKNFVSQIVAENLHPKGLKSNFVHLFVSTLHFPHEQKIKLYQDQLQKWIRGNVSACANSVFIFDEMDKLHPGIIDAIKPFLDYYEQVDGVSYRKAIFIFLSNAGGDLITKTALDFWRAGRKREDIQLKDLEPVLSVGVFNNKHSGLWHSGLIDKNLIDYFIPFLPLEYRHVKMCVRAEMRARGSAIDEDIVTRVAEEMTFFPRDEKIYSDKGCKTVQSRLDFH
UniProt O14818: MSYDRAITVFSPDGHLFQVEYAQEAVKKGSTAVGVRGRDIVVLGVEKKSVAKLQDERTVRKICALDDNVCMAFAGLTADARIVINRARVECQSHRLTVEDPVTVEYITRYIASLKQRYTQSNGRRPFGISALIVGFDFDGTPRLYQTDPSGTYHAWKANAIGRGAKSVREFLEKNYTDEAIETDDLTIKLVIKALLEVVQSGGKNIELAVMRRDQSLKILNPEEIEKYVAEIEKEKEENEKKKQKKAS
UniProt O00217, whole entry: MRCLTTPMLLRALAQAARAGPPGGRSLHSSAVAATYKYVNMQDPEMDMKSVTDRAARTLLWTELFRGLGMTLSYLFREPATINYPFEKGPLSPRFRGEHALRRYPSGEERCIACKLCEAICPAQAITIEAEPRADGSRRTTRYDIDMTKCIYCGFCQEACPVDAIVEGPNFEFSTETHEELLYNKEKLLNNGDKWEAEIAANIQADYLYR
UniProt O15050: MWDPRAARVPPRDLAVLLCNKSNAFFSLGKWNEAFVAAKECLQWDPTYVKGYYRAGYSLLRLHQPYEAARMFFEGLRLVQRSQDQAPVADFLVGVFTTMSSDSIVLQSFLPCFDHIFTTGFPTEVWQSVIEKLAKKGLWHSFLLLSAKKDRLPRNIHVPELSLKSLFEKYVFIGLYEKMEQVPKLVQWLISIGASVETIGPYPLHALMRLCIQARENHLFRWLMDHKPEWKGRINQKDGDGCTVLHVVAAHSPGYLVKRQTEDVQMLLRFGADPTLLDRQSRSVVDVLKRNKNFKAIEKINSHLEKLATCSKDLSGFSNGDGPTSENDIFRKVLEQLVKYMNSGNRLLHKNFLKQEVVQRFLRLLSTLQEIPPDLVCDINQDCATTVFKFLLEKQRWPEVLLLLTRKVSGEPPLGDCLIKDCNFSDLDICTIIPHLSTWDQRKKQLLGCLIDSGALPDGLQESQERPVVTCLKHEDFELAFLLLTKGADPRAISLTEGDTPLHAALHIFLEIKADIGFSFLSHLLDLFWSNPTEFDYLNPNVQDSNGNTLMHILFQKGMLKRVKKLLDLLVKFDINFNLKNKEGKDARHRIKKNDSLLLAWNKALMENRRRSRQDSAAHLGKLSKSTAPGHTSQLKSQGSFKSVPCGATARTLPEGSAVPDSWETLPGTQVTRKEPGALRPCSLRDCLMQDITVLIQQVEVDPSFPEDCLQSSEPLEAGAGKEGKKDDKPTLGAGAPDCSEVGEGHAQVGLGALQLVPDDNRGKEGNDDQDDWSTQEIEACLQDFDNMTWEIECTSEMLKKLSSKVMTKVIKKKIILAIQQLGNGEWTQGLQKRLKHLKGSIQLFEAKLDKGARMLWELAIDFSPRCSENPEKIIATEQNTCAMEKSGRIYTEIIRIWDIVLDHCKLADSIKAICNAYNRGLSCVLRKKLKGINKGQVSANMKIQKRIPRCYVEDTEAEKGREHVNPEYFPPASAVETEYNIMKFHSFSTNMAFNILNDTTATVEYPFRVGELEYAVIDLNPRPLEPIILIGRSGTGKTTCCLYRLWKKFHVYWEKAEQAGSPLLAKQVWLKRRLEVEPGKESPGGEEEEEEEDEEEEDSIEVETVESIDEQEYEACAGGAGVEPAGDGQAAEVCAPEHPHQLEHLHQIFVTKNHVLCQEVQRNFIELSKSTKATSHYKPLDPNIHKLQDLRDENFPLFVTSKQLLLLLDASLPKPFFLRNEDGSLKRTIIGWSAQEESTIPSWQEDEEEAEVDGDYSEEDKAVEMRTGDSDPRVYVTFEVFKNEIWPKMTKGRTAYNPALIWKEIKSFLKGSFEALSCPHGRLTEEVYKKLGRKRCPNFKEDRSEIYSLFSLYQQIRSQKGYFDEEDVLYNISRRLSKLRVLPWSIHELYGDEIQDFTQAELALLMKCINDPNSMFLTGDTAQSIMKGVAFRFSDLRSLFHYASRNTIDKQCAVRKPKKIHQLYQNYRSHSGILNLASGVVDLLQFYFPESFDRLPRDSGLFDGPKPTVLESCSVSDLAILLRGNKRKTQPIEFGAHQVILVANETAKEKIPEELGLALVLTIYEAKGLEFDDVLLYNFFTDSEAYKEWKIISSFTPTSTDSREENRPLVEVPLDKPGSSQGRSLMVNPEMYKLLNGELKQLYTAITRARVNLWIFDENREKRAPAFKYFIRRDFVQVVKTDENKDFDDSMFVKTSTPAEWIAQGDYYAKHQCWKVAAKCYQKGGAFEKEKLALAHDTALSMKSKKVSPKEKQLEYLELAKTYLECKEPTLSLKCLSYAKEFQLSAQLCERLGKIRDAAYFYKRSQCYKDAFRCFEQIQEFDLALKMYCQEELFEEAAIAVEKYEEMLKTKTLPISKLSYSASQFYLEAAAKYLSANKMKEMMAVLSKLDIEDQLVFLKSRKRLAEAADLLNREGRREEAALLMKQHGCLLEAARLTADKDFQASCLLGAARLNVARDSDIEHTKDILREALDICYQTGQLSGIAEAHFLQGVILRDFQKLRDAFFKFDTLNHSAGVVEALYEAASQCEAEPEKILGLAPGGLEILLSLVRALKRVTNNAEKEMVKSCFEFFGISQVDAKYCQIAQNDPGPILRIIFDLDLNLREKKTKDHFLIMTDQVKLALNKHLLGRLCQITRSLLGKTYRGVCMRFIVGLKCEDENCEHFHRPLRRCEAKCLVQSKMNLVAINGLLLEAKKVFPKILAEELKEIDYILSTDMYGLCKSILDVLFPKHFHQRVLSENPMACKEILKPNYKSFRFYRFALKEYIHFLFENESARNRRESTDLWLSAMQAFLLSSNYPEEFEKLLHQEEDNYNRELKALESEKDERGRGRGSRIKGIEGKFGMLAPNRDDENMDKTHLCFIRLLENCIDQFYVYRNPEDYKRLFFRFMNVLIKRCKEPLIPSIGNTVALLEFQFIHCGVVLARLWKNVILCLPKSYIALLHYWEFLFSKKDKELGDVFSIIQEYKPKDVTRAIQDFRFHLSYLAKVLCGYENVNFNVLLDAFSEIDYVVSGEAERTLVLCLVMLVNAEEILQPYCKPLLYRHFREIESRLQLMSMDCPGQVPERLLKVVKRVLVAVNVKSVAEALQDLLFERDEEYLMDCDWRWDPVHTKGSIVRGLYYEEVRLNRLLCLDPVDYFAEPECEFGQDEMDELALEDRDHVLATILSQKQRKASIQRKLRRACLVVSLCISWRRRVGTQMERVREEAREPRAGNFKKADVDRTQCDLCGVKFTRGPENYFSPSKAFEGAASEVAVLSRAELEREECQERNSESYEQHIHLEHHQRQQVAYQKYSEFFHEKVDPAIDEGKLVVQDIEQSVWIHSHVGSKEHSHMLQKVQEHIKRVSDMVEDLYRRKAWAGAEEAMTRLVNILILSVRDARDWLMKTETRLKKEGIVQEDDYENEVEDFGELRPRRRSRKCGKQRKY
UniProt O00559: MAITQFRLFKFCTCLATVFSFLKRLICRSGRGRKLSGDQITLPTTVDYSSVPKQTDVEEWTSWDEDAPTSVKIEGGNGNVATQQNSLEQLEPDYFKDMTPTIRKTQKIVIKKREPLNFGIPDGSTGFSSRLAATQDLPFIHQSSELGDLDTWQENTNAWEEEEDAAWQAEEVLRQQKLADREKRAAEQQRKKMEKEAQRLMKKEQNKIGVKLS
UniProt A8MWD9, whole entry: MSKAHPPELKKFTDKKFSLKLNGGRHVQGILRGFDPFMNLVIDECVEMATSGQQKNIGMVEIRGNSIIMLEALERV
UniProt O15151: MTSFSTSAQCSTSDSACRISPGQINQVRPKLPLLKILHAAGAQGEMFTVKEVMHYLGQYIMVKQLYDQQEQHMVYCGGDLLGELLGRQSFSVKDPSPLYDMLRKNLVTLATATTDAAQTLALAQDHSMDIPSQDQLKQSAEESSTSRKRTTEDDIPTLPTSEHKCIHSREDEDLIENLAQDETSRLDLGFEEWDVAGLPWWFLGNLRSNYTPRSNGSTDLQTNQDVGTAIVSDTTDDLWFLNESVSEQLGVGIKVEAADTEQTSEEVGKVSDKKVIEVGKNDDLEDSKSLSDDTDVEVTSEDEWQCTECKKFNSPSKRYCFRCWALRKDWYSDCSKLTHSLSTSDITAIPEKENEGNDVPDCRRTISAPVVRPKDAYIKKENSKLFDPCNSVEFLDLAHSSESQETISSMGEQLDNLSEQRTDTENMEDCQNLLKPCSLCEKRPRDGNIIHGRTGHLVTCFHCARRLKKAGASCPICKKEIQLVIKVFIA
UniProt O14933: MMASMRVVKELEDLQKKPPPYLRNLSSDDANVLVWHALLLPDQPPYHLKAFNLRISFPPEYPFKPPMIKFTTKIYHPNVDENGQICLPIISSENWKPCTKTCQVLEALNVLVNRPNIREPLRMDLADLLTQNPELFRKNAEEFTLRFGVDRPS
UniProt O15287: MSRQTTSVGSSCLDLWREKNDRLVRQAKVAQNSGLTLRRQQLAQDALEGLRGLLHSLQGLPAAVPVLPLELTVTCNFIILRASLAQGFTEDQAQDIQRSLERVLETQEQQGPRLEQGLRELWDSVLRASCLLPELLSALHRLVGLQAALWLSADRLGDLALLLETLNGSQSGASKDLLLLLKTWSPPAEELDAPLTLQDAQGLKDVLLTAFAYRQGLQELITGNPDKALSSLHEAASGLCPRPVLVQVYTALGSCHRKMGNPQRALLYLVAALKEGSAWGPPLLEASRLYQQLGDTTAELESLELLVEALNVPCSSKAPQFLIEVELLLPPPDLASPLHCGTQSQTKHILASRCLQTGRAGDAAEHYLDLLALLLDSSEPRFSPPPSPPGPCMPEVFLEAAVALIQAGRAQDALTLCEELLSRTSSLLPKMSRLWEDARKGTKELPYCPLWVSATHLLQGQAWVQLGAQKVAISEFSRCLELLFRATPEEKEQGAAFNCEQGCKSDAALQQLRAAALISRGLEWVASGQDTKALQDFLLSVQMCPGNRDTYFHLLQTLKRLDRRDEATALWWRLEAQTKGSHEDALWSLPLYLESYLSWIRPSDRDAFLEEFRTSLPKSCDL
UniProt O15259: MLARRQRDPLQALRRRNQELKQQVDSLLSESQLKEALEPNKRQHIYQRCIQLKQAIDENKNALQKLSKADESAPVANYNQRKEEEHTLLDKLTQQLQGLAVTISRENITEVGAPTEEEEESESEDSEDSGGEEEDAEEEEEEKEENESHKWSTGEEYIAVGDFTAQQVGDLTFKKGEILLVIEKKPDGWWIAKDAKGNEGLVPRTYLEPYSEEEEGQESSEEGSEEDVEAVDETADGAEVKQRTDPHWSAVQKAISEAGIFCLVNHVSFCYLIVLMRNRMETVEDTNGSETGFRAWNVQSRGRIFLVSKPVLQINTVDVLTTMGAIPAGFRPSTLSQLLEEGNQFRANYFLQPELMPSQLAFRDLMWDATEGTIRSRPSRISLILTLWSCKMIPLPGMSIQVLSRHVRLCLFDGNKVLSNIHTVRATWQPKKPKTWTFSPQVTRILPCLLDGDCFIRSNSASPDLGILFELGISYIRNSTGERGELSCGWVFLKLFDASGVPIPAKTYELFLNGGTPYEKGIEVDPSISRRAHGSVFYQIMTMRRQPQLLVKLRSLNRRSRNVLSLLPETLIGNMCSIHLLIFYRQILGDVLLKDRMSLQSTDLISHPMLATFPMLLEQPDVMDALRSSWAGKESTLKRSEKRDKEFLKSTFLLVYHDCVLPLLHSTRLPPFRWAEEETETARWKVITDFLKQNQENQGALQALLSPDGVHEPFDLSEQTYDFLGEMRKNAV

Compound: Cc1nc(Nc2ncc(C(=O)Nc3c(C)cccc3Cl)s2)cc(N2CCN(CCO)CC2)n1 [dasatinib]
Assay: log2 fold change of tryptic peptide abundance, ligand vs vehicle (limited proteolysis) (log2 ratio); higher = more trypsin-susceptible (destabilized)
Conditions: ligand concentration: 5 uM; sample: K562 cleared lysate

| Target | log2 fold change |
| --- | --- |
| ADAM10 (peptide sequence: ESYQMGHMR, peptide start residue: 739) (UniProt O14672) | 0.0751 |
| MYO1F (peptide sequence: GGPLPLEIMSGGGTHRPPR, peptide start residue: 964) (UniProt O00160) | 0.0987 |
| UniProt O15054 (peptide sequence: LGPSAHSSR, peptide start residue: 438) | -0.58 |
| WWP2 (peptide sequence: TTTWQRPTAEYVR, peptide start residue: 355) (UniProt O00308) | -0.079 |
| E2F3 (peptide sequence: TNNQDHNGNIPKPASK, peptide start residue: 363) (UniProt O00716) | -0.279 |
| MEIS1 (peptide sequence: DHDDTASTR, peptide start residue: 216) (UniProt O00470) | 0.565 |
| TOR1B (peptide sequence: IYSDKGCK, peptide start residue: 320) (UniProt O14657) | -0.2 |
| PSMA7 (peptide sequence: YVAEIEKEKEENEK, peptide start residue: 228) (UniProt O14818) | 0.0723 |
| ACACB (peptide sequence: IGFPLMIK, peptide start residue: 447) (UniProt O00763) | 0.158 |
| STX16 (peptide sequence: ELASLHDK, peptide start residue: 98) (UniProt O14662) | 0.153 |
| NDUFS8 (peptide sequence: EPATINYPFEK, peptide start residue: 78) (UniProt O00217) | -0.298 |
| NVL (peptide sequence: TLFVGLPPPADR, peptide start residue: 743) (UniProt O15381) | 0.319 |
| LBA1 (peptide sequence: STAPGHTSQLK, peptide start residue: 626) (UniProt O15050) | -0.688 |
| ARPC3 (peptide sequence: QEDEVMR, peptide start residue: 124) (UniProt O15145) | 0.444 |
| EBAG9 (peptide sequence: KREPLNFGIPDGSTGFSSR, peptide start residue: 112) (UniProt O00559) | -0.00241 |
| ARID1A (peptide sequence: TELLPSRPHAPCPPAPR, peptide start residue: 1863) (UniProt O14497) | -0.165 |
| EXOC5 (peptide sequence: KTDFKPEDENNVLIQYTNACVK, peptide start residue: 557) (UniProt O00471) | -0.792 |
| ARPC2 (peptide sequence: VFMQEFK, peptide start residue: 180) (UniProt O15144) | -0.0981 |
| NUDT19 (peptide sequence: FGLGPAPFSR, peptide start residue: 89) (UniProt A8MXV4) | -0.0548 |
| PGRMC1 (peptide sequence: KFYGPEGPYGVFAGR, peptide start residue: 105) (UniProt O00264) | 0.041 |
| SNRPGP15 (peptide sequence: AHPPELKK, peptide start residue: 4) (UniProt A8MWD9) | -0.0503 |
| AP3B1 (peptide sequence: TVIGSVLLR, peptide start residue: 1077) (UniProt O00203) | -0.201 |
| MDM4 (peptide sequence: TISAPVVRPK, peptide start residue: 365) (UniProt O15151) | -0.232 |
| UBE2L6 (peptide sequence: NAEEFTLR, peptide start residue: 139) (UniProt O14933) | 0.142 |
| UniProt O00444 (peptide sequence: VIQDAEERPHSR, peptide start residue: 360) | 0.444 |
| GEMIN2 (peptide sequence: SEDEEGWK, peptide start residue: 138) (UniProt O14893) | -0.27 |
| FANCG (peptide sequence: VLETQEQQGPR, peptide start residue: 103) (UniProt O15287) | -0.357 |
| UniProt O15259 (peptide sequence: EENESHK, peptide start residue: 144) | -0.079 |

A different layout for some results above:
Target,log2 fold change
"STX16 (peptide sequence: ELASLHDK, peptide start residue: 98) (UniProt O14662)",0.153
"FANCG (peptide sequence: VLETQEQQGPR, peptide start residue: 103) (UniProt O15287)",-0.357
